{"sequences": {"note": "Protein sequences, listed by entry. Tags and fused reporters are not part of them. Lines headed by an entry give the natural chain unless they say otherwise; changes in a name come on top.", "UniProt P51450": "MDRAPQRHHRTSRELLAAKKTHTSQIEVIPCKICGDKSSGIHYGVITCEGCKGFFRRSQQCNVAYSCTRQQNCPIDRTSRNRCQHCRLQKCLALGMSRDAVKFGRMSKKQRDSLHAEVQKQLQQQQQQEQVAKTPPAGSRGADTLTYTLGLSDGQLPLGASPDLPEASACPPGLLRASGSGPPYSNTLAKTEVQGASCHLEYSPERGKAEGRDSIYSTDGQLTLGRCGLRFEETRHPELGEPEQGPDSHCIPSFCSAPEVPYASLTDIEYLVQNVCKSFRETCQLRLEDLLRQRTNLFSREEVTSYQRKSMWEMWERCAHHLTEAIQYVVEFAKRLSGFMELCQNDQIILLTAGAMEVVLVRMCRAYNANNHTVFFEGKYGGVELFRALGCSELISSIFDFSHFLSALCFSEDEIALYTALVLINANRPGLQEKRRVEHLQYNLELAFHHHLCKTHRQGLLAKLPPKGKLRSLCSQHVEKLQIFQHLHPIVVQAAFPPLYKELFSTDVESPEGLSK"}, "source": "PubChem BioAssay AID2551", "about": "(National Center for Advancing Translational Sciences (NCATS), 2010)", "note": "The campaign covered roughly 310,000 compounds. About 17,000 (5.5%) were called active. This list was built around the results that the source calls inconclusive (neither active nor inactive); the mix of calls is not that of the screen. The call rests on the fitted dose curve; in most records, active means well fitted inhibition curve with a large enough effect; inconclusive means small, poorly fitted or top-dose-only effect, or effect the other way; inactive means no such curve, though single readings can be large or run the other way. Potencies beside an inconclusive call are fits to weak or partial responses and may not hold up. On the % scale 0 is the no-effect control and ±100 the full control effect; potency means the concentration at half of the fitted maximal effect."}
{"molecular_target": "Nuclear receptor ROR-gamma (Mus musculus) (UniProt P51450)", "assay": "qHTS for inhibitors of ROR gamma transcriptional activity; further: nearly all actives have a fitted effect of over 60% in size", "conditions": "Drosophila S2 Gal4-RORgamma UAS-luciferase reporter, 20 h; activity change, negative = inhibition: at 53.6 µM (top of the series)", "procedure,_shortened": "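A Gal4/UAS one-hybrid system in insect cells: metallothionein-promoter Gal4–ROR gamma fusion plus Photinus luciferase reporter. Copper sulfate 700 uM final, 20 hr ambient incubation, luminescent detection after 10 min with reagent.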"}
{"smiles": "CCCCNC(=O)CSc1nc2ccc(NC(=O)CSc3nnc(N)s3)cc2s1", "Potency": "inconclusive: 11.2 µM [activator, partial curve]"}
{"smiles": "S=c1[nH]nc(-c2ccco2)n1/N=C/c1ccccc1", "Potency": "inconclusive: 25.1 µM [inhibitor, single point]"}
{"smiles": "COc1cc(/C=C/c2ccc3cccc(O)c3n2)cc(OC)c1OC", "Potency": "inconclusive: 2.51 µM [inhibitor, full curve]"}
{"smiles": "COc1ccc(C(CC(=O)Nc2ncccc2C)N2Cc3ccccc3C2=O)cc1OC", "note": "(stereo unspecified)", "Potency": "inconclusive: 35.5 µM [activator, single point]"}
{"smiles": "CC(=O)Cn1ncc(Br)c(Br)c1=O", "Potency": "active: 11.2 µM"}
{"smiles": "O=c1ncccn1[C@@H]1O[C@H](CO)[C@@H](O)[C@H]1O", "activity change, negative = inhibition": "inactive: -5.87%"}
{"smiles": "C=CCn1c(O)c(N=NC(=S)Nc2ccc(OC)cc2)c2ccccc21", "Potency": "active: 3.16 µM"}
{"smiles": "S=C(N/N=C/c1ccc2c(c1)OCO2)NC1CC2CCC1C2", "note": "(stereo unspecified)", "Potency": "active: 4.47 µM"}
{"smiles": "COc1cc(/C=N/NC(=O)c2cc(-c3ccccc3)nc3ccccc23)cc(OC)c1O", "activity change, negative = inhibition": "inactive: -13.4%"}
{"smiles": "CSc1nc2[nH]c3c(c2c2nnnn12)CCCC3", "Potency": "inconclusive: 12.6 µM [activator, partial curve]"}
{"smiles": "COc1ccc(NC(=O)COc2ccc(/C=C/c3cc[n+](C)cc3)cc2OC)cc1", "activity change, negative = inhibition": "inactive: -34.4%"}
{"smiles": "CCCNCC1C(Oc2ccc(Cl)cc2Cl)C(=O)N1c1cccc(C)c1C", "note": "(stereo unspecified)", "Potency": "inconclusive: 35.5 µM [inhibitor, single point]"}
{"smiles": "CCn1cc(/C=N\\NC(=O)c2cc(-c3ccccc3OC)nc3ccccc23)c(C)n1", "Potency": "inconclusive: 12.6 µM [inhibitor, single point]"}
{"smiles": "CC(C)(C)c1ccc(C(=O)NCc2nnc(SCC(=O)N3CCCc4ccccc43)n2-c2ccccc2)cc1", "Potency": "inconclusive: 12.6 µM [activator, partial curve]"}
{"smiles": "Cc1cc2ccccn2c1C(=O)c1ccc(Cl)cc1", "Potency": "inconclusive: 35.5 µM [inhibitor, single point]"}
{"smiles": "CCCn1c(C(C)Nc2nc(-c3ccc(Cl)c([N+](=O)[O-])c3)cs2)nc2ccccc21", "note": "(stereo unspecified)", "Potency": "active: 12.6 µM"}
{"smiles": "CCn1c(SCC(=O)NCc2ccccc2)nnc1-c1c[nH]c2ccccc12", "Potency": "inconclusive: 35.5 µM [activator, single point]"}
{"smiles": "CCCN(CCC)C(=O)CC(c1ccc(F)cc1)c1ccco1", "note": "(stereo unspecified)", "activity change, negative = inhibition": "inactive: 23.9%"}
{"smiles": "O=C(NC(=S)Nc1ccc2ncccc2c1)c1ccccc1", "Potency": "inconclusive: 35.5 µM [inhibitor, single point]"}
{"smiles": "CC(C)C(OC(=O)c1ccco1)C(=O)NCc1ccco1", "note": "(stereo unspecified)", "activity change, negative = inhibition": "inactive: 3.51%"}
{"smiles": "CCn1cc(/C=C/C(=O)Nc2c(C)nn(Cc3ccccc3C)c2C)cn1", "Potency": "inconclusive: 12.6 µM [activator, partial curve]"}
